From PubChem BioAssay AID1487 (National Center for Advancing Translational Sciences (NCATS), 2009)
Several values for one entry are separate records, joined by “and”; a condition that tells them apart may be missing. Equal values may be shown once. The campaign covered roughly 200,000 compounds. About 25 (0.01%) were called active. Inconclusive means that the source gave no clear call. Such entries were picked first, then a sample of the others. The call rests on the fitted dose curve; in most records, active means well fitted inhibition curve with a large enough effect in the signal ratio, with a control signal flat (not every such curve was filed as active); inconclusive means small, poorly fitted or top-dose-only effect, or effect the other way, or a change in a side signal; inactive means flat fitted curve, though single readings scatter; the % refers to the signal ratio. A potency beside an inconclusive call is a rough fit, not a confirmed value.

experiment: qHTS Assay for Modulators of Lamin A Splicing; conditions: HeLa LMNA splicing GFP/RFP minigene ratio, 48 h; ratio change, negative = inhibition: at 46.1 µM (top of the series) unless noted
In short: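 S3 HeLa cells stably expressing lamin A-EGFP splicing minigene plus DsRed2, 600 cells/well, 48 h compound exposure at 37C. Laser-scanning cytometry; analysed as GFP (500-530 nm)/RFP (575-640 nm) total intensity ratio; 0.5% DMSO vehicle.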
On the % scale 0 is the no-effect control and ±100 the full control effect; potency means the concentration at half of the fitted maximal effect.

| Structure (SMILES) | ratio change, negative = inhibition | Potency |
| --- | --- | --- |
| O=C(NCc1ccccc1Cl)C1CCN(S(=O)(=O)c2ccc3c(c2)CCCN3C(=O)C2CCC2)CC1 | inactive: 5.8% [at 46 µM] | – |
| CCOC(=O)c1c(NC(=O)COc2ncnc3ccccc23)sc(C)c1C | inconclusive: 7.86% | – |
| Fc1ccc(Nc2ncncc2-c2ccccc2C(F)(F)F)cc1 | inconclusive: 3.83% | – |
| Cn1c(N)c(C(=O)COC(=O)c2cc(C3CC3)nc3ccccc23)c(=O)n(C)c1=O | inactive: -11.1% | – |
| CCn1cnc2c(cnn2-c2ccccc2)c1=O | inconclusive: 25.6% | – |
| Cc1nn(C)c(C)c1CNC(=O)c1cc2n(n1)C(C(F)(F)F)CC(c1cccs1)N2 (stereo not given) | – | inconclusive: 14.1 µM [fluorescent, single point] |
| CC1CCC(NC(=O)Nc2cccs2)CC1 (stereo not given) | inactive: 11.4% | – |
| Cc1ccc(-c2nnc(N3CCCCC3)c3ccccc23)cc1S(=O)(=O)N1CCN(C)CC1 | inactive: 1.59% | – |
| O=c1c2cn[nH]c2nc(SCc2ccc3c(c2)OCCO3)n1-c1ccccc1 | inconclusive: 13.7% | – |
| O=C(NCCCn1ccnc1)Nc1cccc2ccccc12 | inactive: -3.18% | – |
| O=c1c2ccccc2nc(-c2ccccc2)n1CCN1CCOCC1 | inactive: 8.27% | – |
| Cc1ccc(S(=O)(=O)N2CCCC(C(=O)Nc3cccnc3)C2)cc1 (stereo not given) | inactive: -3.17% | – |
| CCOC(=O)Cc1nnc(NC(=O)CSc2ncc(-c3ccccc3)nn2)s1 | inconclusive: 14.9% [at 46 µM] | – |
| O=C(/C=C/c1ccc(Br)o1)OCc1ccccc1 | inactive: -5.12% | – |
| O=C(c1ccccc1)N1CCN(c2ncnc3c(-c4ccccc4)nsc23)CC1 | inactive: -4.2% [at 46 µM] | – |
| COc1ccccc1-c1ccc2ncnc(NC3CCNCC3)c2c1 | inconclusive: -19.4% | – |
| COCc1cc(Sc2ccc(Br)cc2)nc(-c2ccccc2)n1 | inconclusive: -8.18% | – |
| O=c1c(-c2ccccc2)nc2cnc(Oc3ccccc3)nc2n1C[C@H]1CCCO1 | inconclusive: -26.7% | – |
| CCCCN(CCCNC(=O)CN1N=C(c2ccccc2)CCC1=O)c1ccccc1 | inconclusive: -29.2% [at 46 µM] | – |
| O=C(COc1ccccc1Cl)Nc1nc2c(s1)CCCC2 | – | inconclusive: 10 µM [inhibitor, partial curve] |
| O=[N+]([O-])c1ccc(CN2CCN(Cc3c[nH]c4ccccc34)CC2)cc1 | inconclusive: -21.5% [at 46 µM] | – |
| CCCCN1CCc2[nH]c(=S)[nH]c(=O)c2C1 | inactive: -9.93% | – |

| Structure (SMILES) | ratio change, negative = inhibition | Potency |
| --- | --- | --- |
| CN(CC(=O)c1c(N)n(C)c(=O)n(C)c1=O)c1ccccc1 | inconclusive: 6.59% [at 46 µM] | – |
| COc1cc(NC(=O)CN2c3cccc4cccc(c34)S2(=O)=O)cc(OC)c1OC | – | inconclusive: 12.6 µM [falling, partial curve] |
| CN1CCN(NS(=O)(=O)c2cccs2)CC1 | inactive: -7.1% | – |
| CNCCCC12CCC(c3ccccc31)c1ccccc12 | inconclusive: -14.9% and inconclusive: -26.2% | – |
| O=C(COc1ccccc1Br)NC1CCCC1 | – | inconclusive: 12.6 µM [fluorescent, partial curve] |
| CCOC(=O)Nc1oc2ccccc2c(=O)c1CN1CCOCC1 | inconclusive: -12.3% | – |
| CCOc1cc(CNc2ccc(CNc3ncn[nH]3)cc2)ccc1OCc1ccccc1 | – | inconclusive: 35.5 µM [falling, single point] |
| CCCc1nn2c(=O)cc(COC(=O)c3cccc(NC(=O)CCc4ccccc4)c3)nc2s1 | inactive: -8.35% [at 46 µM] | – |
| C=CCn1c(O)c(N=NC(=S)Nc2cccc(C)c2)c2ccccc21 | inconclusive: -43.5% | – |
| Cc1noc(C)c1C(=O)Nc1sc(C)c(C)c1C#N | inconclusive: 33.9% | – |
| O=C(c1cccs1)N(Cc1cccnc1)c1nc2ccc(F)cc2s1 | inactive: -4.93% [at 46 µM] | – |
| Cc1ccc(OCC(=O)Nc2ccccc2C(=O)OCc2cc(=O)n3nc(C4CC4)sc3n2)cc1 | inconclusive: -17.2% [at 46 µM] | – |
| Cc1cccc(CNc2ncncc2-c2cccc(NS(C)(=O)=O)c2)c1 | inconclusive: -35.5% | – |
| CCCCC1(C)NC(=O)N(CC(=O)Nc2ccc(S(=O)(=O)N3CCOCC3)cc2)C1=O (stereo not given) | inactive: 6.18% | – |
| CCOc1ccc(NC(=O)CNC(=O)c2ccc(OC)c(OC)c2)cc1 | inconclusive: 12% | – |
| COc1ccc(-n2cc(CNCCc3ncc(C)[nH]3)c(-c3ccccc3Cl)n2)cc1 | inconclusive: -10.8% [at 46 µM] | – |
| CCOC(=O)c1nn(-c2ccc(C)c(C)c2)c(=O)c2c(N)scc12 | inactive: 3.67% | – |
| O=C(Nc1ccc(C(=O)OCc2cc(=O)n3c4c(sc3n2)CCCC4)cc1)c1ccccc1 | inconclusive: 7.21% [at 46 µM] | – |
| O=S(=O)(/C=C/c1ccccc1)Nc1cccc(S(=O)(=O)NC2=NCCC2)c1 | inconclusive: -23% [at 46 µM] | – |
| CCOC(=O)c1c(NC(=O)c2cccnc2)sc(C)c1C | inactive: -2.91% | – |
| COC(=O)c1ccc[n+](CC(=O)Nc2ccc(OC(F)F)cc2)c1 | inactive: 4.42% [at 46 µM] | – |
| CCN(CC)CCNC(=O)c1ccc(NC(=O)COc2ccccc2F)cc1 | inactive: 2.26% [at 46 µM] | – |

An excerpt from above in order of molecular weight, high to low.

| Structure (SMILES) | ratio change, negative = inhibition | Potency |
| --- | --- | --- |
| CCOC(=O)c1nn(-c2ccc(C)c(C)c2)c(=O)c2c(N)scc12 | inactive: 3.67% | – |
| CCOC(=O)Nc1oc2ccccc2c(=O)c1CN1CCOCC1 | inconclusive: -12.3% | – |
| Cc1noc(C)c1C(=O)Nc1sc(C)c(C)c1C#N | inconclusive: 33.9% | – |

The listing continues.

| Structure (SMILES) | ratio change, negative = inhibition | Potency |
| --- | --- | --- |
| CCN(CC)C(=O)C(C)N(C#N)c1nc(NC(C)C)nc(NC(C)C)n1 (stereo not given) | inactive: 3.96% | – |
| COc1cc(CNCCc2c[nH]c3ccccc23)ccc1OCc1ccc(F)cc1 | inactive: -3.63% | – |
| CCOc1cccc(C(=O)Nc2ccc(S(=O)(=O)N(Cc3ccccc3)c3ccccc3)cc2)c1 | inactive: 21.9% [at 46 µM] | – |
| COc1ccc(S(=O)(=O)N2CCCCCC2)cc1C(=O)OCC(=O)NC(C)(C)C | inconclusive: 1.99% [at 46 µM] | – |
| O=C(Nc1ccccc1)c1cnc2n(c1=O)CCS2 | inactive: -13.8% | – |
| COc1ccc(C(=O)NCC(c2cccnc2)N2CCc3ccccc3C2)cc1OC (stereo not given) | inactive: -5.64% [at 46 µM] | – |
| COC(=O)Cc1n[nH]c(=O)c2ccccc12 | inactive: 10% | – |
| O=C(CCn1c(=O)[nH]c2ccsc2c1=O)N(CCc1ccccc1)Cc1ccccc1 | inconclusive: 14.2% | – |
| CC(C)OC(=O)c1cccc(-c2ccc(C=O)o2)c1 | inactive: 1.74% | – |
| FC(F)(F)c1ccccc1-c1nccc(NCCN2CCOCC2)n1 | inactive: -1.08% | – |
| Cc1nn(CCCC(=O)Nc2cc(Oc3ccccc3)cc([N+](=O)[O-])c2)c(C)c1[N+](=O)[O-] | inconclusive: -24.2% | – |
| COc1ccc(-c2csc(NC(=O)c3cc(-c4cccs4)nc4ccccc34)n2)c(OC)c1 | inactive: -5.71% | – |
| CN(C)[C@H]1C(=O)C(C(=O)NCN2CCCC2)=C(O)[C@]2(O)C(=O)C3=C(O)c4c(O)cccc4[C@](C)(O)[C@H]3C[C@H]12 | inconclusive: 24.4% | – |
| Cc1cccc(NC(=O)c2cc(S(=O)(=O)N3CCc4ccccc43)ccc2F)c1C | inactive: -3.12% [at 46 µM] | – |
| O=C(NCC(=O)N(Cc1ccc(F)cc1)C(C(=O)NC1CCCC1)c1ccco1)c1ccco1 (stereo not given) | inconclusive: 12.8% | – |
| COc1cccc(C2c3c(oc4ccc(Cl)cc4c3=O)C(=O)N2c2cc(C)on2)c1OC (stereo not given) | inconclusive: 4.32% | – |
| C=C(C)CNC(=S)N=Nc1c(O)[nH]c2ccc([N+](=O)[O-])cc12 | inconclusive: -46.5% [at 46 µM] | – |
| CC(NC(=O)CCCC1=NS(=O)(=O)c2ccccc2N1)c1ccccc1 (stereo not given) | inconclusive: 24.4% [at 46 µM] | – |
| c1ccc(-c2csc(N3CCN(c4ccccn4)CC3)n2)cc1 | – | inconclusive: 35.5 µM [fluorescent, single point] |
| Cc1cc(NC(=O)CSc2nc(-c3ccccc3Cl)nc3c2c(=O)n(C)c(=O)n3C)no1 | inconclusive: 10.1% [at 46 µM] | – |
| O=C(/C=C/c1c(F)cccc1Cl)Nc1nn[nH]n1 | inconclusive: 7.08% [at 46 µM] | – |
| COCCCNC(=S)N/N=C/c1ccccc1O | – | inconclusive: 35.5 µM [inhibitor, single point] |

| Structure (SMILES) | ratio change, negative = inhibition | Potency |
| --- | --- | --- |
| CC(C)Oc1ccc2c(=O)cc(-c3ccccc3)oc2c1 | – | inconclusive: 0.355 µM [inhibitor, single point] |
| Cc1nc(N[C@@H](Cc2c[nH]c3ccccc23)C(=O)O)c2oc3ccccc3c2n1 | inactive: 5.08% | – |
| O=C(NCc1ccc(C(F)(F)F)cc1)C1CC(c2c(Cl)cccc2Cl)=NO1 (stereo not given) | inconclusive: -26.3% | – |
| Clc1ccc(Cn2ncc3c(NCc4ccco4)ncnc32)c(Cl)c1 | inactive: -28% | – |
| c1ccc2c(c1)OCCOCCOc1ccccc1OCCOCCO2 | inconclusive: -24.1% | – |
| Cc1cccc(NC(=O)CN2C(=O)N/C(=C\c3ccc(N4CCOCC4)cc3)C2=O)c1 | inactive: -8.73% | – |
| CCOc1ccc2c(c1)C(c1ccc(C)cc1)=NNC(c1ccc(C)cc1)=N2 | – | inconclusive: 14.1 µM [falling, single point] |
| CCOC(=O)C1=C(C)C(c2ccc(OC)cc2)NC(=S)N1 (stereo not given) | inactive: -1.65% | – |
| CN(C)c1ccc(-c2nc(N3CCNCC3)c3ccccc3n2)cc1 | inconclusive: -17.9% | – |
| CCC(C)c1ccc(O)c(NC(=O)c2cccnc2)c1 (stereo not given) | inactive: -9.68% | – |
| O=C(NC(=S)N1CCN(c2ccc([N+](=O)[O-])cc2)CC1)c1ccccc1F | – | inconclusive: 35.5 µM [fluorescent, single point] |
| S=C(NCC1CCCO1)Nc1cccc(Cl)c1 (stereo not given) | inconclusive: -18.4% [at 46 µM] | – |
| CCCCC(=O)Nc1nc(C)c(C(C)=O)s1 | inactive: 0.167% | – |
| Cn1c(=O)oc2cc(S(=O)(=O)NCCC(=O)Nc3ccc4c(c3)OCCO4)ccc21 | inconclusive: -5.15% | – |
| COc1cc(S(=O)(=O)N2CCN(c3ccccc3F)CC2)c(OC)cc1Cl | – | inconclusive: 20 µM [fluorescent, single point] |
| COC(=O)c1cn(C(=O)c2ccc(Br)o2)c2ccccc12 | inactive: -13.2% | – |
| COc1cc2c3nnc(-c4ccc(F)cc4)c-3cn(Cc3ccccc3F)c2cc1OC | inconclusive: 24.5% [at 9.22 µM] | – |
| Cc1nnc(N(C)C(=O)c2ccc3c(c2)OCO3)s1 | inconclusive: -4.56% [at 46 µM] | – |
| Cc1ccc(C23CC4CC(CC(CC(=O)N5CCOCC5)(C4)C2)C3)cc1 | – | inconclusive: 35.5 µM [fluorescent, single point] |

Entries from the list above with an NH in an aromatic ring:

| Structure (SMILES) | ratio change, negative = inhibition | Potency |
| --- | --- | --- |
| O=c1c2cn[nH]c2nc(SCc2ccc3c(c2)OCCO3)n1-c1ccccc1 | inconclusive: 13.7% | – |
| O=[N+]([O-])c1ccc(CN2CCN(Cc3c[nH]c4ccccc34)CC2)cc1 | inconclusive: -21.5% [at 46 µM] | – |
| CCCCN1CCc2[nH]c(=S)[nH]c(=O)c2C1 | inactive: -9.93% | – |
| CCOc1cc(CNc2ccc(CNc3ncn[nH]3)cc2)ccc1OCc1ccccc1 | – | inconclusive: 35.5 µM [falling, single point] |
| COc1ccc(-n2cc(CNCCc3ncc(C)[nH]3)c(-c3ccccc3Cl)n2)cc1 | inconclusive: -10.8% [at 46 µM] | – |
| COc1cc(CNCCc2c[nH]c3ccccc23)ccc1OCc1ccc(F)cc1 | inactive: -3.63% | – |
| COC(=O)Cc1n[nH]c(=O)c2ccccc12 | inactive: 10% | – |
| O=C(CCn1c(=O)[nH]c2ccsc2c1=O)N(CCc1ccccc1)Cc1ccccc1 | inconclusive: 14.2% | – |
| C=C(C)CNC(=S)N=Nc1c(O)[nH]c2ccc([N+](=O)[O-])cc12 | inconclusive: -46.5% [at 46 µM] | – |
| O=C(/C=C/c1c(F)cccc1Cl)Nc1nn[nH]n1 | inconclusive: 7.08% [at 46 µM] | – |
| Cc1nc(N[C@@H](Cc2c[nH]c3ccccc23)C(=O)O)c2oc3ccccc3c2n1 | inactive: 5.08% | – |
